In publication doi:10.1101/2021.06.28.449463:
These are yes or no findings as the source states them, for the method shown. In cells and extracts the contact can be indirect. Here binding means that the protein was enriched with, or labelled near, the bait; the list need not be complete.

Amino acid sequences for entries named in this document (tags omitted). A change or cut given only in a name is not applied to a line headed by its entry.
UniProt Q5DW34: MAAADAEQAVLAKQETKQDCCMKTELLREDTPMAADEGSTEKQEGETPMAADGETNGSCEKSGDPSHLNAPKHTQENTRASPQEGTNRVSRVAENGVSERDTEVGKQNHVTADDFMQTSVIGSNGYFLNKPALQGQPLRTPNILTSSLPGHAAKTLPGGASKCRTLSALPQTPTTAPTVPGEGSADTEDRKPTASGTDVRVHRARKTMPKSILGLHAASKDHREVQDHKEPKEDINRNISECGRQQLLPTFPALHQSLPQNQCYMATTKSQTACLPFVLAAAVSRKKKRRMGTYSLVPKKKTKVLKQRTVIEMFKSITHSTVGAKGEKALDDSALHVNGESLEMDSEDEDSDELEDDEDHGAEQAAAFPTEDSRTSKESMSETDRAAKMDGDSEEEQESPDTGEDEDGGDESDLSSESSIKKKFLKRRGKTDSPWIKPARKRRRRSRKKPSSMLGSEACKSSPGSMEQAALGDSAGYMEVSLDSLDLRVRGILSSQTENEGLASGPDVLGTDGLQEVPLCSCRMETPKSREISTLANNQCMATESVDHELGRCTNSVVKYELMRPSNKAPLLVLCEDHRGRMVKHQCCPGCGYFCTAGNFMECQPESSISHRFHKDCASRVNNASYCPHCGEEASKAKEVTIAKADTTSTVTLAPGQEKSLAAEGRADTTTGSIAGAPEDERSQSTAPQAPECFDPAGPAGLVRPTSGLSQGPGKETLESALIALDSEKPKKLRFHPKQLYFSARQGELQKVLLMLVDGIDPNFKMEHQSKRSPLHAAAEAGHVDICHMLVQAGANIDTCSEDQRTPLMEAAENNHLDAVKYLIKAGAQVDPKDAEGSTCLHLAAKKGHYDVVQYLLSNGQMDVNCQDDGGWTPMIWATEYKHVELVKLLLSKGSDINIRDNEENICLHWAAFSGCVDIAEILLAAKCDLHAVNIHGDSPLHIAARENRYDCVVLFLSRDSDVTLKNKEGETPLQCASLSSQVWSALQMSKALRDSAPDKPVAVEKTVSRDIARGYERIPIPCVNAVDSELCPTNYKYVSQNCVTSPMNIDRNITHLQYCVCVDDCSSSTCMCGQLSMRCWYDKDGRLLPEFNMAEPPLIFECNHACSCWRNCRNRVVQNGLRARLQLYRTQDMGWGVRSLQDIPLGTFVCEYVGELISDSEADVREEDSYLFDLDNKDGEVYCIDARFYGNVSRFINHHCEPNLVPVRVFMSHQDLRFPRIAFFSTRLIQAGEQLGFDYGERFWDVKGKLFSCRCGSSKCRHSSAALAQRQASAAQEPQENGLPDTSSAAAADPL
UniProt B1AWL2: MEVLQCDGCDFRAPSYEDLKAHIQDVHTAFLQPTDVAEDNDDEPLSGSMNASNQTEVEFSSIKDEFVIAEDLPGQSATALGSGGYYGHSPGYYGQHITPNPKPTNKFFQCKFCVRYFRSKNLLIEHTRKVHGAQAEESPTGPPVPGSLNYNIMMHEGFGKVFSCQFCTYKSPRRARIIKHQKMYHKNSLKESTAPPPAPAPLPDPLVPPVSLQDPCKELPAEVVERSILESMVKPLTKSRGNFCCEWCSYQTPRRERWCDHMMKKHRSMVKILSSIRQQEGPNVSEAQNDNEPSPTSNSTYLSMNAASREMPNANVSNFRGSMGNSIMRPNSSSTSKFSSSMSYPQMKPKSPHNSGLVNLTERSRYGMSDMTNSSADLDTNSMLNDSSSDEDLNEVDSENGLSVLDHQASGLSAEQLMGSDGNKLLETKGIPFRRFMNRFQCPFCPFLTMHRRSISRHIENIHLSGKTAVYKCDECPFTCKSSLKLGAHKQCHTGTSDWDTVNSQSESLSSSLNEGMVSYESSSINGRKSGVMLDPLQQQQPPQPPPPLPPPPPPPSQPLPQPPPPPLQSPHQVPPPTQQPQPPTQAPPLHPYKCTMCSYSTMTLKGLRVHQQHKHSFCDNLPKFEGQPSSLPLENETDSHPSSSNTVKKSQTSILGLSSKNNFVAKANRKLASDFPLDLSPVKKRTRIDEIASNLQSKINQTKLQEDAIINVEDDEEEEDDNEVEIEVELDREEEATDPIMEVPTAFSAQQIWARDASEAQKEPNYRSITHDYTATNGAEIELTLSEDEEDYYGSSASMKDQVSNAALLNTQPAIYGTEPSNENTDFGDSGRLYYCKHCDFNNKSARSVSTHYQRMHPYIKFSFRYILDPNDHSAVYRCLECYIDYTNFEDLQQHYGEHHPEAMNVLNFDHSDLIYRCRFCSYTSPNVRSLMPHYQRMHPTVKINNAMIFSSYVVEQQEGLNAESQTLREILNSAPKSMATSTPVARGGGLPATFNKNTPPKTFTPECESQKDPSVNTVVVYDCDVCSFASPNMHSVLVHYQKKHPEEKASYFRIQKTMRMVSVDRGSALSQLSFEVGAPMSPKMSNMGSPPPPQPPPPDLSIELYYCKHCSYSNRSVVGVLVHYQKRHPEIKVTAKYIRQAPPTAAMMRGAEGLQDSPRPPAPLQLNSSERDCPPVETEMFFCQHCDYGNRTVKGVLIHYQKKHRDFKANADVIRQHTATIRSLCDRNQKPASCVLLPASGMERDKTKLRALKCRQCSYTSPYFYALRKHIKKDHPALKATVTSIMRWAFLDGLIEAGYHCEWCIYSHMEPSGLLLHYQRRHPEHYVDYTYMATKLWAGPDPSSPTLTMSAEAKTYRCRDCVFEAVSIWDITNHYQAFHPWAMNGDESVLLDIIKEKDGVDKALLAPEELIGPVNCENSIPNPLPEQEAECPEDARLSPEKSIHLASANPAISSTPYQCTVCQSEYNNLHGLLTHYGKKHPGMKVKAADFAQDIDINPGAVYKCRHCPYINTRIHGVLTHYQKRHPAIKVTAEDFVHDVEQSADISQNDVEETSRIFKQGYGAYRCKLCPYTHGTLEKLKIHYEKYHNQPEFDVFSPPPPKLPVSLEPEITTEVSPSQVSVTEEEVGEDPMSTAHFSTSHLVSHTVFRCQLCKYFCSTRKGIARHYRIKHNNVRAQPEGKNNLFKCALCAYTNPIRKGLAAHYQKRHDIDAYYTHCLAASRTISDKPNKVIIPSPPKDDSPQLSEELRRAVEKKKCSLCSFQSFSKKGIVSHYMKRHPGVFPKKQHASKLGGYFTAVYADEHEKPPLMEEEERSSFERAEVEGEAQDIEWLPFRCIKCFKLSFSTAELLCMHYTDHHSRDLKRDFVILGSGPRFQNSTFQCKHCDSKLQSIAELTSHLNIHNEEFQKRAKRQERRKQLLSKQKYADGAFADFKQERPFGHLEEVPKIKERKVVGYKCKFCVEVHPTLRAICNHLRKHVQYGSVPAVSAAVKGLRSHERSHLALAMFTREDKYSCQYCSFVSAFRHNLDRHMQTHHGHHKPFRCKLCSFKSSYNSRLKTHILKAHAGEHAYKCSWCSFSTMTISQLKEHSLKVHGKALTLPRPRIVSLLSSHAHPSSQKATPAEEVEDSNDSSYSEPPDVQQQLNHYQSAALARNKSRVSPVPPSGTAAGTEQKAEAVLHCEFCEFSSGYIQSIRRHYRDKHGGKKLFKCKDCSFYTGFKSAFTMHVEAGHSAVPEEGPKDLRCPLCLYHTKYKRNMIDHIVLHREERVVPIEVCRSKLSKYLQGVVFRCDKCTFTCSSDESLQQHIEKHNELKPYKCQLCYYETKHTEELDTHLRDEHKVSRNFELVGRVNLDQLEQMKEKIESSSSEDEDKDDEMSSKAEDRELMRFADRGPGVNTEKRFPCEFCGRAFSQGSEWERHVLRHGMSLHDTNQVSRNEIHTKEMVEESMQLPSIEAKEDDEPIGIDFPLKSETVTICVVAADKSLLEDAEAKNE
UniProt Q9Z148: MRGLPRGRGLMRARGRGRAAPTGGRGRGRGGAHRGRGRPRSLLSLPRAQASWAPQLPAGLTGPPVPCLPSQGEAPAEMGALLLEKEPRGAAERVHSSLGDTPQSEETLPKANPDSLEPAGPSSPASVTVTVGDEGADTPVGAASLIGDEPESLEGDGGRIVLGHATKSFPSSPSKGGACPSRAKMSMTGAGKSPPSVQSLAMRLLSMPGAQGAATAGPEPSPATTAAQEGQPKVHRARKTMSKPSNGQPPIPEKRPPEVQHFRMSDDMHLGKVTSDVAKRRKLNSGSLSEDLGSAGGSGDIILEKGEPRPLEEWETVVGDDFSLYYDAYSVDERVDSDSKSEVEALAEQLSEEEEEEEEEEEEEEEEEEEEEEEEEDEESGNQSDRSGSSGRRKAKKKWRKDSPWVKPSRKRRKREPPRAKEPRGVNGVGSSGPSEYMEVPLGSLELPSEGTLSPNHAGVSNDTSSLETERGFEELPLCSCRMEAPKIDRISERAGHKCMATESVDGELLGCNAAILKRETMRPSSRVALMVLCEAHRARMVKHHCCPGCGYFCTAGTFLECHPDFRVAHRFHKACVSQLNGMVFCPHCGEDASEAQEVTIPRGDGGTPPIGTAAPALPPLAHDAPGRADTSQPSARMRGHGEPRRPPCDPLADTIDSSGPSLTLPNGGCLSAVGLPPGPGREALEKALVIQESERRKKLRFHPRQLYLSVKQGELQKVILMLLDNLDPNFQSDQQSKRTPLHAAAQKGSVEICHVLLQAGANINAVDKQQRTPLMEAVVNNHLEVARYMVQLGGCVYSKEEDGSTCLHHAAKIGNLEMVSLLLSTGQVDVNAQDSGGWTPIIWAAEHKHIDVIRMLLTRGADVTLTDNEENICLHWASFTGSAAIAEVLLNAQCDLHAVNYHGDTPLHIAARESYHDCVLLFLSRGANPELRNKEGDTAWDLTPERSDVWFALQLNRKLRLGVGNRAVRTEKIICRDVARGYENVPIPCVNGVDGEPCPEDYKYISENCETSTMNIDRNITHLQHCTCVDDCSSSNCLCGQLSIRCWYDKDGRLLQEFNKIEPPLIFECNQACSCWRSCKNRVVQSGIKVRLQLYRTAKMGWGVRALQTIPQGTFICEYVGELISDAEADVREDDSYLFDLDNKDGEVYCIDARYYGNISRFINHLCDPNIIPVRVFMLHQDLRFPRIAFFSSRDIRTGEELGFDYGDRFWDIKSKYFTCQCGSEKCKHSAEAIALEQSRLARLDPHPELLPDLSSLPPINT

Columns and labels:
[1] = target: Avi-fused endogenous GLP (G9-like protein, Euchromatic Histone Methyltransferase 1) (mouse (endogenous in mESCs)) (UniProt Q5DW34); assay: affinity purification with mass spectrometry
[2] = target: Avi-GFP-3XFLAG-tagged endogenous ZFP462 (Zinc finger protein 462) (mouse (endogenous in mESCs)) (UniProt B1AWL2); assay: affinity purification with mass spectrometry

| binding [1] | binding [2] | Substance |
| --- | --- | --- |
| binds | binds | G9A (Euchromatic Histone Methyltransferase 2), endogenous (from UniProt Q9Z148 1-1263) |
| binds | binds | WIZ, endogenous (from UniProt O88286 1-1684) |
| binds | – | ZFP462 (Zinc finger protein 462), endogenous (from UniProt B1AWL2 1-2495) |
